According to patent US9233318 (dated 2016):

Assay: peptide synthesis
Conditions: acetate; for crude HPLC purity: late stage modification step; for final purity (method not given): purification step, HPLC

In the case of caspofungin acetate, the “crude HPLC purity” value (run 1) is reported as 78.64%, the “crude HPLC purity” value (run 2) is reported as 47.09% and the “final purity (method not given)” value (run 1) is reported as 99.85%. The “final purity (method not given)” value (run 2) was 99.88%, the “final purity (method not given)” value (run 3) was 99.81% and the “final purity (method not given)” value (run 4) was 99.46%. The “final purity (method not given)” value (run 5) was 99.88%, the “final purity (method not given)” value (run 6) was 99.90% and the “final purity (method not given)” value (run 7) was 99.71%. The “final purity (method not given)” value (run 8) was 99.61%, the “final purity (method not given)” value (run 9) was 99.01% and the “final purity (method not given)” value (run 10) was 99.71%.
